Measured data: PubChem BioAssay AID1259405 (NCATS, 2018)
The whole screen tested about 50,000 reagents; this is a random part of them. Over the whole deposit, about 4,000 (8%) got an active call. 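Mouse siRNA library applied to hamster cells; one well for each siRNA.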 Reagents against one gene are numbered here.

Test: 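Knock-downs that lift recombinant protein yield in hamster ovary cells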 (primary screen)
Cells: Chinese hamster CHO-K1 ovary cells with stable secreted eGFP expression
Reagents: single siRNA against mouse genes, 0.8 pmol siRNA per well (2 µl of 400 nM stock)
Duration: 3 days
Read-out: 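Percent of the per-plate non-targeting control median for intracellular GFP per well by laser scanning cytometry and for cell viability by ATP luminescence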
Scale: GFP, % of control: higher = more GFP per well, higher productivity; viability (ATP), % of control: higher = more viable cells (more ATP)
Call rule: 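a knock-down is called active if GFP reaches 120% or more of non-targeting control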

no.	Target gene	reagent no.	GFP, % of control	viability (ATP), % of control	activity call
1	Ovol1	1	86.6	105	inactive
2	Ovol1	2	63.4	78.8	inactive
3	Ovol1	3	39	46.3	inactive
4	Bod1	1	101	101	inactive
5	Bod1	2	85.1	68.1	inactive
6	Bod1	3	106	111	inactive
7	Asf1a	1	51.8	39.4	inactive
8	Asf1a	2	65.9	76.8	inactive
9	Asf1a	3	107	81.3	inactive
10	Asb6	1	133	92	active
11	Asb6	2	88.8	68.8	inactive
12	Asb6	3	75.7	91.9	inactive
13	Mmp9	1	70	111	inactive
14	Mmp9	2	81.8	84.1	inactive
15	Chlsn	1	81.6	73.2	inactive
16	Chlsn	2	45.3	47.5	inactive
17	Chlsn	3	65.9	99	inactive
18	Or6c215	1	126	84.6	active
19	Or6c215	2	54.3	60	inactive
20	Or6c215	3	66.7	70.6	inactive
21	Arih1	1	61.4	66.2	inactive
22	Arih1	2	82.7	64.1	inactive
23	Arih1	3	148	118	active
24	Catsper2	1	30.4	28.8	inactive
25	Catsper2	2	48.9	65.4	inactive
26	Catsper2	3	89.9	80	inactive
27	Acly	1	74.4	91.3	inactive
28	Acly	2	87.2	58.4	inactive
29	Acly	3	95	67.5	inactive
30	Ppt1	1	103	129	inactive
31	Ppt1	2	51.4	86	inactive
32	Ppt1	3	52.9	90	inactive
33	Timm44	1	96.8	81.4	inactive
34	Timm44	2	45	61.7	inactive
35	Timm44	3	49.4	41.2	inactive
36	N4bp3	1	71.5	83.1	inactive
37	N4bp3	2	87.9	85.6	inactive
38	N4bp3	3	82	95	inactive
39	Pcdhb6	1	79.2	26.3	inactive
40	Pcdhb6	2	83.8	53.5	inactive
41	Pcdhb6	3	37.5	33.9	inactive
42	Nop9	1	73	75.3	inactive
43	Nop9	2	70.8	76.2	inactive
44	Nop9	3	73.8	92	inactive
45	Dbh	1	79	79.1	inactive
46	Dbh	2	74.1	46.1	inactive
47	Dbh	3	58.4	51.7	inactive
48	Prkci	1	72.3	62.2	inactive
49	Prkci	2	68.1	80.5	inactive
50	Prkci	3	90.2	78.3	inactive

The list goes on (9 carried over from the part before).
no.	Target gene	reagent no.	GFP, % of control	viability (ATP), % of control	activity call
42	Nop9	1	73	75.3	inactive
43	Nop9	2	70.8	76.2	inactive
44	Nop9	3	73.8	92	inactive
45	Dbh	1	79	79.1	inactive
46	Dbh	2	74.1	46.1	inactive
47	Dbh	3	58.4	51.7	inactive
48	Prkci	1	72.3	62.2	inactive
49	Prkci	2	68.1	80.5	inactive
50	Prkci	3	90.2	78.3	inactive
51	Spata17	1	36.7	88.4	inactive
52	Spata17	2	91.7	78.5	inactive
53	Spata17	3	72.2	80.8	inactive
54	9630028B13Rik	1	46.6	56.8	inactive
55	9630028B13Rik	2	57.2	62.5	inactive
56	9630028B13Rik	3	73.6	79.6	inactive
57	Sfxn1	1	88.9	88.9	inactive
58	Sfxn1	2	37.9	66.2	inactive
59	Sfxn1	3	110	99	inactive
60	Ppp3ca	1	116	106	inactive
61	Ppp3ca	2	64.8	60.7	inactive
62	Ppp3ca	3	82.6	72.3	inactive
63	Pmfbp1	1	59	54.1	inactive
64	Pmfbp1	2	53.8	44.1	inactive
65	Pmfbp1	3	81.6	90	inactive
66	Ocrl	1	78.3	67.4	inactive
67	Ocrl	2	59.9	45.5	inactive
68	Ocrl	3	88.3	94.3	inactive
69	Itgb1	1	95.9	50.5	inactive
70	Itgb1	2	75	61.7	inactive
71	Itgb1	3	63	63.8	inactive
72	C1qa	1	58	59.8	inactive
73	C1qa	2	104	54.8	inactive
74	C1qa	3	83.1	78.5	inactive
75	Fbxl20	1	70.7	72.2	inactive
76	Fbxl20	2	45.8	50.8	inactive
77	Fbxl20	3	97.7	94.1	inactive
78	Loxl2	1	121	90.5	active
79	Loxl2	2	75.2	55.5	inactive
80	Loxl2	3	62.8	68.1	inactive
81	Vmn1r208	1	80.7	61.9	inactive
82	Vmn1r208	2	65.1	69.2	inactive
83	Vmn1r208	3	102	93.6	inactive
84	Nlrx1	1	55.7	62.1	inactive
85	Nlrx1	2	87.3	58.1	inactive
86	Nlrx1	3	95	97.4	inactive
